Counter-ions that a name gives are not always drawn. The list shows a part of the results. This data set is noisy: repeats of one test often differ as much as different tests do.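 Human fetal ventral-midbrain neural progenitor line ReNCell VM, differentiated without mitogens. Images stained for doublecortin (early neurons) or tyrosine hydroxylase (dopaminergic neurons) were scored by blinded raters against untreated wells (0 = no change). Repeats and both raters were averaged, and compounds averaging 2 or higher were picked as hits for retesting.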 *1 amine or outer side, *2 acyl side, *3 side chain or, on linkers, in order; H or OH if unused. Where a SMILES comes first, the peptide text is derived from it. Bridges are numbered along the chain shown (N, C = ends). Roman numbers before positions name the chains, in order. [ ]: non-standard residue; d: D form. Actinocin(9to1) = Cc1c2oc3c(C)ccc(C(=O)[*:1])c3nc-2c(C(=O)[*:2])c(N)c1=O; NMeV = CN[C@H](C(=O)O)C(C)C; Sar = CNCC(=O)O
Each compound was assayed on ReNCell VM (assay: neuronal differentiation score (DCX+ cell fraction vs untreated, manual image score) (score (-3 to 3)); higher = more neuronal differentiation). Conditions: library: LOPAC; 2 uM; 2 weeks.
In the case of `CC(C)(C)NCC(O)c1ccc(O)c(CO)c1` (stereo not drawn) [Albuterol hemisulfate], the neuronal differentiation score is reported as inactive: 0. In the case of `O=C(O)CCC(=O)N1CCC[C@H]1C(=O)O` [N-Succinyl-L-proline], the neuronal differentiation score is reported as inactive: 0. For `O=C(NCCO)c1ccc2c(c1)nc(Nc1cccc(Cl)c1)c1ccncc12` [CK2 Inhibitor 2], the neuronal differentiation score was inactive: 0. In the case of `O=C(O)[C@@H]1C[C@H](C(=O)O)N1` [cis-Azetidine-2,4-dicarboxylic acid], the neuronal differentiation score is reported as inactive: 1. For `Nc1c2c(nc3ccccc13)CCCC2` [9-Amino-1,2,3,4-tetrahydroacridine hydrochloride], the neuronal differentiation score was inactive: 0.

Same assay, conditions: library: Prestwick; 2 uM; 2 weeks
In the case of `COc1cc2nc(N(C)CCCNC(=O)C3CCCO3)nc(N)c2cc1OC` (stereo not drawn) [Alfuzosin hydrochloride], the neuronal differentiation score is reported as inactive: 0. For `Clc1ccc(Nc2nnc(Cc3ccncc3)c3ccccc23)cc1` [Vatalanib], the neuronal differentiation score was inactive: 0. In the case of `C[n+]1ccccc1/C=N/O` [Pralidoxime chloride], the neuronal differentiation score is reported as inactive: 0. For `C[C@H]1[C@H](NC(=O)/C(=N\OC(C)(C)C(=O)O)c2csc(N)n2)C(=O)N1S(=O)(=O)O` [Aztreonam], the neuronal differentiation score was inactive: 0. In the case of `CCCC(CCC)C(=O)O` [Valproic acid], the neuronal differentiation score is reported as inactive: 0. `O=C(O)c1ccccc1Nc1cccc(C(F)(F)F)c1` [Flufenamic acid] was tested, and the neuronal differentiation score was inactive: 0. With `N#Cc1ccc(C2CCCc3cncn32)cc1` (stereo not drawn) [Fadrozole hydrochloride] the neuronal differentiation score was inactive: 0.

Same assay, conditions: library: Spectrum; 2 uM; 2 weeks
For `Cc1c2oc3c(C)ccc(C(=O)N[C@@H]4C(=O)N[C@H](C(C)C)C(=O)N5CCC[C@H]5C(=O)N(C)CC(=O)N(C)[C@@H](C(C)C)C(=O)O[C@@H]4C)c3nc-2c(C(=O)N[C@@H]2C(=O)N[C@H](C(C)C)C(=O)N3CCC[C@H]3C(=O)N(C)CC(=O)N(C)[C@@H](C(C)C)C(=O)O[C@@H]2C)c(N)c1=O` (I: T[dV]P[Sar][NMeV] / II: T[dV]P[Sar][NMeV]; ester I:1-I:C, II:1-II:C; linker I:N-II:N via Actinocin(9to1)), the neuronal differentiation score was inactive: 0. For `C/C=N/N(C)C=O`, the neuronal differentiation score was inactive: 0. In the case of `CCC(C)(C)c1ccc(CC(C)CN2C[C@@H](C)O[C@@H](C)C2)cc1` (stereo partly drawn), the neuronal differentiation score is reported as inactive: 0. In the case of `CCc1oc2ccccc2c1C(=O)c1cc(Br)c(O)c(Br)c1`, the neuronal differentiation score is reported as inactive: 0. With `Cc1cc(=O)n(-c2ccccc2)n1C` the neuronal differentiation score was inactive: 0. With `Nc1nc(/C(=C/CC(=O)O)C(=O)N[C@@H]2C(=O)N3C(C(=O)O)=CCS[C@H]23)cs1` the neuronal differentiation score was inactive: 0. For `CCCCC(CC)COc1ccc(-c2nc(-c3ccc(OC)cc3)nc(-c3ccc(OCC(CC)CCCC)cc3O)n2)c(O)c1` (stereo not drawn), the neuronal differentiation score was inactive: 0. For `COC(=O)c1c(C)c2c(c(C)c1O)OC(=O)c1c(C)c(Cl)c(O)c(Cl)c1O2`, the neuronal differentiation score was inactive: 0. In the case of `COc1cc(C=CC(=O)O)cc(OC)c1O`, the neuronal differentiation score is reported as inactive: 0. For `C=CC1=C(C)c2cc3[nH]c(cc4nc(cc5[nH]c(cc1n2)c(C)c5CCC(=O)O)C(CCC(=O)O)=C4C)c(C)c3C=C`, the neuronal differentiation score was inactive: 0. In the case of `CO[C@H]1C[C@@H]2CC[C@@H](C)[C@@](O)(O2)C(=O)C(=O)N2CCCC[C@H]2C(=O)O[C@H]([C@H](C)C[C@@H]2CC[C@@H](O)[C@H](OC)C2)CC(=O)[C@H](C)/C=C(\C)[C@@H](O)[C@@H](OC)C(=O)[C@H](C)C[C@H](C)/C=C/C=C/C=C/1C`, the neuronal differentiation score is reported as inactive: 0. For `C[C@]12CC[C@@H](O)C[C@H]1CCc1ccccc12` [3alpha-HYDROXY-4,4-BISNOR-8,11,13-PODOCARPATRIENE], the neuronal differentiation score was inactive: 0. With `CC(O)Cn1cnc2c1c(=O)n(C)c(=O)n2C` (stereo not drawn) the neuronal differentiation score was inactive: 0. `CC(=O)O[C@@H]1C[C@@]2(C)C(CC[C@@H]2C(C)=O)C2CCC3=CC(=O)CC[C@]3(C)C21` (stereo partly drawn) was tested, and the neuronal differentiation score was inactive: 0. `CN[C@@H]1[C@H](O[C@H]2[C@H](O[C@H]3[C@H](O)[C@@H](O)[C@H](N=C(N)N)[C@@H](O)[C@@H]3N=C(N)N)O[C@@H](C)[C@]2(O)C=O)O[C@@H](CO)[C@H](O)[C@H]1O` was tested, and the neuronal differentiation score was inactive: 0. With `O=C(COc1ccc(Cl)cc1)N1CCN(Cc2ccc3c(c2)OCO3)CC1` the neuronal differentiation score was inactive: 0. With `C/C(=C(\CCOP(=O)(O)O)SC(=O)c1ccccc1)N(C=O)Cc1cnc(C)nc1N` the neuronal differentiation score was inactive: 0. In the case of `Cc1ncc([N+](=O)[O-])n1CC(O)CCl` (stereo not drawn), the neuronal differentiation score is reported as inactive: 0. `O=C1CC[C@@H](C(=O)O)N1` was tested, and the neuronal differentiation score was inactive: 0. In the case of `CN1[C@@H](CC(=O)c2ccccc2)CCC[C@H]1C[C@H](O)c1ccccc1`, the neuronal differentiation score is reported as inactive: 0. In the case of `CC(=O)OCC(=O)[C@@]1(OC(C)=O)[C@@H](C)C[C@H]2[C@@H]3C[C@H](F)C4=CC(=O)C=C[C@]4(C)[C@@]3(F)[C@@H](O)C[C@@]21C`, the neuronal differentiation score is reported as inactive: 0.
